# Where a name gives a salt, the structure may show the parent alone. This is one part of the list. Plates or batches differ in their baseline, so values are only roughly comparable.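 HCT116-GFP is a human colorectal cancer cell line that carries a KRAS mutation, is microsatellite-unstable and always makes green fluorescent protein; the immune cells came from healthy donors. Live-cell imaging of the green signal stood in for cancer cell survival, and activated immune cells alone cut survival to about half.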
# Test system: HCT116-GFP
# Test: HCT116-GFP viability (GFP intensity) relative to untreated HCT116-GFP monoculture control, co-culture with activated PBMCs; higher = less cancer cell killing
# Details: culture: co-culture with anti-CD3/IL2 activated PBMCs 1:1; 10 µM; 72 h
row,Structure (SMILES),HCT116-GFP viability
1,COc1ccccc1N1CCN(CC(O)COc2cccc3ccccc23)CC1 (stereo not given) [Naftopidil dihydrochloride],34%
2,CN1CCCC(CC2c3ccccc3Sc3ccccc32)C1 (stereo not given) [Metixene hydrochloride],60.3%
3,CCN1C(=O)NC(c2ccccc2)C1=O (stereo not given) [Ethotoin],62.8%
4,CCCN(CCC)C(=O)C(CCC(=O)O)NC(=O)c1ccccc1 (stereo not given) [Proglumide],53.4%
5,COc1ccc2c(c1)N(C[C@H](C)CN(C)C)c1ccccc1S2 [Methotrimeprazine maleat salt],81.2%
6,CC(C)(Sc1cc(C(C)(C)C)c(O)c(C(C)(C)C)c1)Sc1cc(C(C)(C)C)c(O)c(C(C)(C)C)c1 [Probucol],33.3%
7,Cn1ccnc1S [Methimazole],66.9%
8,Nc1c(Br)cc(Br)cc1CN[C@H]1CC[C@H](O)CC1 [Ambroxol hydrochloride],69.2%
9,CN(C)CC/C=C1\c2ccccc2CSc2ccccc21 [Dosulepin hydrochloride],57.7%
10,CC(C)(Oc1ccc(Cl)cc1)C(=O)O [Clofibric acid],63%
11,Cn1c(=O)c2c(ncn2CC(=O)O)n(C)c1=O [Acefylline],64.6%
12,CO[C@H]1C[C@H](O[C@H]2[C@H](C)[C@@H](O[C@@H]3O[C@H](C)C[C@H](N(C)C)[C@H]3OC(C)=O)[C@@H](C)C[C@@]3(CO3)C(=O)[C@H](C)[C@@H](OC(C)=O)[C@@H](C)[C@@H](C)OC(=O)[C@@H]2C)O[C@@H](C)[C@@H]1OC(C)=O [Troleandomycin],66%
13,COc1ccc(-c2ccc(=N)n(CCCC(=O)O)n2)cc1 [Gabazine bromide],42.7%
14,Cc1cc(C(=O)NNCc2ccccc2)no1 [Isocarboxazid],73.8%
15,CN1CCN(C2=Nc3cc(Cl)ccc3Nc3ccccc32)CC1 [Clozapine],65.2%
16,C[C@@H]1NC(=O)NC1=O [Methylhydantoin-5-(L)],57.9%
17,Cc1ccc(-c2ncc(Cl)cc2-c2ccc(S(C)(=O)=O)cc2)cn1 [Etoricoxib],38.4%
18,CC1CCc2c(N3CCC(O)CC3)c(F)cc3c(=O)c(C(=O)O)cn1c23 (stereo not given) [Nadifloxacin],51.3%

# Some of the entries so far, as tab-separated lines:
row	Structure (SMILES)	HCT116-GFP viability
4	CCCN(CCC)C(=O)C(CCC(=O)O)NC(=O)c1ccccc1 (stereo not given) [Proglumide]	53.4%
8	Nc1c(Br)cc(Br)cc1CN[C@H]1CC[C@H](O)CC1 [Ambroxol hydrochloride]	69.2%
16	C[C@@H]1NC(=O)NC1=O [Methylhydantoin-5-(L)]	57.9%

# Later entries.

row,Structure (SMILES),HCT116-GFP viability
1,Cc1cc(=O)n(-c2ccccc2)n1C [Antipyrine],52%
2,Clc1ccc(COC(Cn2ccnc2)c2ccc(Cl)cc2Cl)c(Cl)c1 (stereo not given) [Miconazole],36.4%
3,NC12CC3CC(CC(C3)C1)C2 [Adamantamine fumarate],34.6%
4,O=c1cc(-c2ccc(O)c(O)c2)oc2cc(O)cc(O)c12 [Luteolin],61.8%
5,CC(C)(C(=O)c1cccnc1)c1cccnc1 [Metyrapone],77.1%
6,CC(=O)N(O)CCCCCNC(=O)CCC(=O)N(O)CCCCCNC(=O)CCC(=O)N(O)CCCCCN [Deferoxamine mesylate],19.9%
7,"CC(C)(S)C(N)C(=O)O (racemic) [D,L-Penicillamine]",74.5%
8,CCN[C@H]1C[C@H](C)S(=O)(=O)c2sc(S(N)(=O)=O)cc21 [Dorzolamide hydrochloride],26.2%
9,CC(C)/N=c1\cc2n(-c3ccc(Cl)cc3)c3ccccc3nc-2cc1Nc1ccc(Cl)cc1 [Clofazimine],1.91%
10,O=C1Cc2cc(CCN3CCN(c4nsc5ccccc45)CC3)c(Cl)cc2N1 [Ziprasidone  Hydrochloride],40.8%
11,C[C@@H]1[C@H](O)[C@@H](C)/C=C/C=C/C=C/C=C/C=C/C=C/C=C/[C@H](O[C@@H]2O[C@H](C)[C@@H](O)[C@H](N)[C@@H]2O)C[C@@H]2O[C@](O)(C[C@@H](O)C[C@@H](O)[C@H](O)CC[C@@H](O)C[C@@H](O)CC(=O)O[C@H]1C)C[C@H](O)[C@H]2C(=O)O [Amphotericin B],42.4%
12,CO[C@@]1(NC(=O)CSCC#N)C(=O)N2C(C(=O)O)=C(CSc3nnnn3C)CS[C@@H]21 [Cefmetazole sodium salt],77.3%
13,CC(C)NC[C@H](O)COc1ccc(CC(N)=O)cc1 [(S)-(-)-Atenolol],43%
14,CCOC(=O)C(C)(C)Oc1ccc(Cl)cc1 [Clofibrate],20.4%
15,CN1CCc2cccc3c2[C@H]1Cc1ccc(O)c(O)c1-3 [R(-) Apomorphine hydrochloride hemihydrate],5.15%
16,CCC(NC(C)C)C(O)c1ccc(O)c(O)c1 (stereo not given) [Isoetharine mesylate salt],62.2%
17,CCC(Cc1c(I)cc(I)c(N)c1I)C(=O)O (stereo not given) [Iopanoic acid],44.8%

# Source: the supplement of paper PMC9938546
